Laboratory results as given in patent US11229675B2, “Therapeutic peptides for excitatory neurotoxicity-related injuries” (Biocells (Beijing) Biotech Co., Ltd., priority 2016, dated 2022).
Entries after “also recorded” stand apart in the source; their conditions may differ.

Protein sequences, listed by entry. Tags and fused reporters are not part of them. Residues count along the entry.
UniProt P78352, 61-249: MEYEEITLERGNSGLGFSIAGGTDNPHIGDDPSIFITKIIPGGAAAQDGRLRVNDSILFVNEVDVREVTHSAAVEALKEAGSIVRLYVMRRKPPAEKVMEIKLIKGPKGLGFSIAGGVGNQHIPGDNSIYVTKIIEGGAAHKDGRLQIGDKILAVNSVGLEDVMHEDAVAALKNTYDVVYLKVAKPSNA

Biological target: PDZ1/2 domain (Homo sapiens, UniProt P78352)
Conditions: His beads + PDZ1/2 + peptide
Description: The mixture was centrifuged at 5000 g for 1 minute at 4° C., and the supernatant was discarded. 1 mg of PDZ1/2 protein was added to the mixture, and a buffer was added to reach the volume of 1 ml. The mixture was spun for binding for 1 hour at 4° C. The mixture was centrifuged at 5000 g for 1 minute at 4° C., and the supernatant was discarded. […] The mixture was spun for binding for 2 hours at 4° C. The mixture was centrifuged at 5000 g for 1 minute at 4° C., and the supernatant was discarded. […] 20 μl of MCAC-300 was added after washing.

Structure (SMILES): CC[C@H](C)[C@H](NC(=O)[C@H](CCC(=O)O)NC(=O)[C@@H](NC(=O)[C@H](CC(=O)O)NC(=O)[C@H](CC(C)C)NC(=O)[C@H](CC(C)C)NC(=O)[C@H](CCCCN)NC(=O)[C@H](CCC(=O)O)NC(=O)[C@H](Cc1ccc(O)cc1)NC(=O)[C@H](CCCNC(=N)N)NC(=O)[C@H](CCCNC(=N)N)NC(=O)[C@H](CCCNC(=N)N)NC(=O)[C@H](CCC(N)=O)NC(=O)[C@H](CCCNC(=N)N)NC(=O)[C@H](CCCNC(=N)N)NC(=O)[C@H](CCCCN)NC(=O)[C@H](CCCCN)NC(=O)[C@H](CCCNC(=N)N)NC(=O)CNC(=O)[C@@H](N)Cc1ccc(O)cc1)[C@@H](C)O)C(=O)O [P5]
- binding to PDZ1/2 domain (pull-down, SDS-PAGE of eluate): can bind to the PDZ1/2 domain; also recorded: capable of binding to PDZ1/2 domain
